These results are taken from paper PMC5912950.

The target in the experiment is T1, Mind Bomb-2 (MIB2), endogenous (human (endogenous in HEK293, MDA-MB-231, HT1080, 786-0)) (UniProt Q96AX9).
T1 sequence: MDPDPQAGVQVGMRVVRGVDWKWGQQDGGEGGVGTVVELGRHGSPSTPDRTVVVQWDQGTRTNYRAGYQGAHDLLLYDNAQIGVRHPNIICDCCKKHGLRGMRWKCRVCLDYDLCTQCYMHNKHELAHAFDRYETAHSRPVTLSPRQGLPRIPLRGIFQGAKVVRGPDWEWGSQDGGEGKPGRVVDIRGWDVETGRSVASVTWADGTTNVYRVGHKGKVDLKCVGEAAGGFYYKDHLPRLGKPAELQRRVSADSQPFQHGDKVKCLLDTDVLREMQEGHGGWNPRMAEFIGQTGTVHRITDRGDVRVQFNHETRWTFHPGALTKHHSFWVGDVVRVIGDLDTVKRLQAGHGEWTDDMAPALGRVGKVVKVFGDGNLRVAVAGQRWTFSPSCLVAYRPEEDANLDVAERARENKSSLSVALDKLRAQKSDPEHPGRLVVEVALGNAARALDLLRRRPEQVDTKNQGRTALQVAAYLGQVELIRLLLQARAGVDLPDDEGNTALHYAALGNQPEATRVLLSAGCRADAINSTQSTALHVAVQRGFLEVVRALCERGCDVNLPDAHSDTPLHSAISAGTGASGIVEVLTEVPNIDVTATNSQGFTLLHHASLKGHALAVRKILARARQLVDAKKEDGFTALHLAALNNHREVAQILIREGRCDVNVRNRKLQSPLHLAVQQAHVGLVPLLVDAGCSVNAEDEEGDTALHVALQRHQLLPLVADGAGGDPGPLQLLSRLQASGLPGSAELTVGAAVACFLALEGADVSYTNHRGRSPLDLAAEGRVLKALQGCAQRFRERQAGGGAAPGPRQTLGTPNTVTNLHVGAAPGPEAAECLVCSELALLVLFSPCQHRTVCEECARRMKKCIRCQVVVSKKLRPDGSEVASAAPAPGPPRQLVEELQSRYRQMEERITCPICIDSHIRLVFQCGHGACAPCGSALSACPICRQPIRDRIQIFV
As to the kind of experiment: co-IP; immuno-precipitation of endogenous MIB2 with a MIB2 antibody (protein A/G agarose) from MDA-MB-231 or 786-0 cells treated with FLAG-hTNF (0.8 μg/mL) for the indicated times; western blot. For orientation: Immunoblotting shows a protein as a band on a membrane.

Results are given in words; binding and its absence hold for the method and conditions named. Binding seen in cells or lysates may run through a third protein. Binding can be weak; no strength is given.

Turning to “TNF receptor-1 (TNF-R1), endogenous (human (endogenous in MDA-MB-231, 786-0))”, the binding result was “binds”.
